Measurements published in publication PMC8745066.
These are yes or no findings as the source states them, for the method shown. Binding seen in cells or lysates may run through a third protein. Some entries that bind do so weakly or less than the wild type.

Protein sequences, listed by entry. Tags and fused reporters are not part of them.
UniProt Q9GZV5: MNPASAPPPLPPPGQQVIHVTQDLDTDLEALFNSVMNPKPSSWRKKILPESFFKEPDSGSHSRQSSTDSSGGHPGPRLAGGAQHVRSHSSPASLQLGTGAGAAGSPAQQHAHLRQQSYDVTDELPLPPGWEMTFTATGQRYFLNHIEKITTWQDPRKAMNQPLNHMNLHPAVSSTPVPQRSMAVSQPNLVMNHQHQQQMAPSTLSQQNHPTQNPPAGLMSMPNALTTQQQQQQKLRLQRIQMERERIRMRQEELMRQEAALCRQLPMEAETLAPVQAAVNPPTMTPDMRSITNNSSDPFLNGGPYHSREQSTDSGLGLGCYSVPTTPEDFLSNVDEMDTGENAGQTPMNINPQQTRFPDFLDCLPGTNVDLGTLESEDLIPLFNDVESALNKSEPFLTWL

Molecular target: T1, Claudin 6 (CLDN6) (UniProt P56747)
T1 sequence: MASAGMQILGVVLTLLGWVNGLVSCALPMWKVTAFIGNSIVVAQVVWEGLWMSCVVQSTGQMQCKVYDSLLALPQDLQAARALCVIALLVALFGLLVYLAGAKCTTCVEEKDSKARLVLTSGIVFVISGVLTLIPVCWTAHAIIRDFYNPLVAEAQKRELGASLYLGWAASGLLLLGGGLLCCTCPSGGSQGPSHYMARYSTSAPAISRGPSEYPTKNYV
Test: co-IP; IP with anti-CLDN6 antibody (E2S5M, Cell Signaling Technology) from MCF-7/CLDN6 and MDA-MB-231/CLDN6 cells; TAZ detected in the precipitate; procedure as in ref. 45

binding: binds
Substance: transcriptional co-activator with PDZ-binding motif (TAZ) (from UniProt Q9GZV5 1-400)
